Measurements taken from PubChem BioAssay AID504834 (National Center for Advancing Translational Sciences (NCATS), 2011).
The campaign covered roughly 320,000 compounds. About 22,000 (6.9%) were called active. Inconclusive results, whose numbers are uncertain, are shown with a selection of clear calls. The call rests on the fitted dose curve; in most records, active means well fitted inhibition curve with a large enough effect; inconclusive means small, poorly fitted or top-dose-only effect, or another doubt; inactive means no such curve, though single readings can be large or run the other way. Potencies beside an inconclusive call are fits to weak or partial responses and may not hold up.

experiment: Primary qHTS for delayed death inhibitors of the malarial parasite plastid, 96 hour incubation; conditions: P. falciparum luciferase reporter growth; series mostly up to 28.7 µM; activity change, negative = inhibition: at the top concentration
Summary of the method: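 Two parasite generations (96 h, 37 C, 5% CO2) of compound exposure in infected erythrocytes (0.05% parasitemia, 2% hematocrit). Luciferase-reporter P. falciparum; decreased luminescence indicates inhibited growth, aimed at apicoplast-acting delayed death.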
On the % scale 0 is the no-effect control and ±100 the full control effect; potency means the concentration at half of the fitted maximal effect.

Structure (SMILES)	activity change, negative = inhibition	Potency
CSc1ccc(CNc2ccccn2)cc1	inactive: 8.39%	–
CCCn1c(CNC(=O)c2cccs2)nc2ccccc21	–	inconclusive: 18.5 µM [inhibitor, single point]
COc1ccc(NC(=O)C/C(C)=N/NC(=O)C(=O)NC2CCCCC2)c(OC)c1	–	inconclusive: 1.65 µM [inhibitor, full curve]
NS(=O)(=O)c1ccc(CCNC(=S)Nc2ccc(F)cc2)cc1	inactive: -12.2%	–
CC(=O)c1cccc(NC(=S)NC(=O)c2ccc(C)cc2Cl)c1	–	inconclusive: 3.29 µM [inhibitor, single point]
O=C(Nc1nnc(S(=O)(=O)N2CCOCC2)s1)c1ccccc1F	inactive: 11.5%	–
Nc1ccc(-c2nc3c(Cl)c(N)ccc3[nH]2)cc1	–	inconclusive: 18.5 µM [inhibitor, single point]
CNCC(=O)N(CC(C)C)c1c(N)n(CC(C)C)c(=O)[nH]c1=O	inactive: 37%	–
COc1ccc2oc(=N)c(C(=O)Nc3ccc(Cl)cc3)cc2c1	–	inconclusive: 0.0657 µM [inhibitor, full curve, poor fit]
COc1ccc(C2/C=C\CNCC(=O)N2Cc2ccc(F)cc2)cc1 (stereo not given)	inactive: 25.2%	–
CC(=O)Nc1ccc(OC(=O)C(CCS(C)(=O)=O)N2C(=O)c3ccccc3C2=O)cc1 (stereo not given)	–	inconclusive: 0.329 µM [inhibitor, partial curve, poor fit]
O=C(OCc1nc2ccc(Cl)cc2n1CCO)c1ccc2c(c1)OCO2	–	inconclusive: 0.0738 µM [inhibitor, full curve, poor fit]
CCOC(=O)N1CCN(C(=O)c2c(-c3ccccc3)noc2C)CC1	–	inconclusive: 9.28 µM [inhibitor, partial curve, poor fit]
O=S(=O)(c1ccc2nc(-c3ccco3)c(-c3ccco3)nc2c1)N1CCOCC1	inactive: -0.509%	–
COCCCn1c(Cc2csc(Nc3cccc(Cl)c3)n2)nnc1SCC(=O)OC	–	inconclusive: 13.1 µM [inhibitor, single point]
Cc1cccc(C(=O)Nc2cc(S(=O)(=O)N3CCOCC3)ccc2N2CCCC2)c1	–	inconclusive: 11.7 µM [inhibitor, single point]
Cc1ccc(S(=O)(=O)N(C)c2c(C)ccc(S(=O)(=O)N3CCN(C)CC3)c2C)cc1	–	inconclusive: 4.15 µM [inhibitor, single point]
NS(=O)(=O)c1ccc(-c2ccc(/C=N/NC(=O)c3ccccc3O)o2)cc1	inactive: 17.8%	–
CC(=O)Nc1ccc(SCC(=O)c2cc(C)n(Cc3cccs3)c2C)cc1	inactive: 19%	–
O=[N+]([O-])c1c(NCCO)cc(N2CCC3(CC2)OCCO3)c2nonc12	–	inconclusive: 11.7 µM [inhibitor, single point]

Looked up by structure from the list above, 2 records:
Structure (SMILES)	activity change, negative = inhibition	Potency
O=S(=O)(c1ccc2nc(-c3ccco3)c(-c3ccco3)nc2c1)N1CCOCC1	inactive: -0.509%	–
COc1ccc2oc(=N)c(C(=O)Nc3ccc(Cl)cc3)cc2c1	–	inconclusive: 0.0657 µM [inhibitor, full curve, poor fit]
